# Laboratory results taken from patent publication US20180289605A1, “NON-AQUEOUS COMPOSITION FOR HAIR FRIZZ REDUCTION” (The Procter & Gamble Company, priority 2017, published 2018).
# Assay: Dynamic Vapor Sorption (DVS) % water reduction of treated hair
# Conditions: Class II materials; hair 0% RH versus 90% RH, versus control hair
# Protocol: The % water reduction is calculated as follows:
# % Water reduction=[(B−A)×100]/B
smiles,measurement,value
CC(C)CC(=O)O [Isovaleric acid],% Water reduction,15%
